# Assay results published in the supplement of paper PMC6411743.
# Protein sequences, listed by entry. Tags and fused reporters are not part of them. Lines headed by an entry give the natural chain unless they say otherwise; changes in a name come on top.
# UniProt Q9BRK5: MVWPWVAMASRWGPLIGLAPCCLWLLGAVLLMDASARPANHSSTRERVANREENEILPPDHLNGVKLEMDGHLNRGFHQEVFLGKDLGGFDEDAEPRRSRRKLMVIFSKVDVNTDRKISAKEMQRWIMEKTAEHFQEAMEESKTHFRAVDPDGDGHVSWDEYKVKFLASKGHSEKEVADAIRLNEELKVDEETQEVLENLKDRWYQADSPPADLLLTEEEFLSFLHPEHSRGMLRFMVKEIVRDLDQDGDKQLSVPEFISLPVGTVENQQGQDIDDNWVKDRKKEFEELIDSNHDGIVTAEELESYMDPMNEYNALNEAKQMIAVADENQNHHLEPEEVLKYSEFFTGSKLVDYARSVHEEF
# UniProt Q9BTE1, whole entry: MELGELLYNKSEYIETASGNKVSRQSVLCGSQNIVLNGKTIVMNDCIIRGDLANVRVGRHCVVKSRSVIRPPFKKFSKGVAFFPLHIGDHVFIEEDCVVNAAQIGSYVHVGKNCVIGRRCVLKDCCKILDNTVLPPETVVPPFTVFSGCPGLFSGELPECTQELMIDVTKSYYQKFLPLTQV
# UniProt Q9BXS6: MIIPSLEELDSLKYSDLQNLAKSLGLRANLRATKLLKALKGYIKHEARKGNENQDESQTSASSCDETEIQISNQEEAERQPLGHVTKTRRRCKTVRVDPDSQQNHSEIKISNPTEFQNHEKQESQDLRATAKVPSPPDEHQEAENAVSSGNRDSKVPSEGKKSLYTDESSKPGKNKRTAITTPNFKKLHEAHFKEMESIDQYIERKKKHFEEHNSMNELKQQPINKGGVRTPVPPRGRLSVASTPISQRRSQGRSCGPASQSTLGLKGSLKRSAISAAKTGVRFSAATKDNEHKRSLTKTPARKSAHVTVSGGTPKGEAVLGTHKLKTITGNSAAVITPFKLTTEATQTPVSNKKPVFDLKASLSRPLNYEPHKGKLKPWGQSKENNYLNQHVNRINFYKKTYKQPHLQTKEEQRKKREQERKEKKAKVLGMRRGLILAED
# UniProt Q9BXK1: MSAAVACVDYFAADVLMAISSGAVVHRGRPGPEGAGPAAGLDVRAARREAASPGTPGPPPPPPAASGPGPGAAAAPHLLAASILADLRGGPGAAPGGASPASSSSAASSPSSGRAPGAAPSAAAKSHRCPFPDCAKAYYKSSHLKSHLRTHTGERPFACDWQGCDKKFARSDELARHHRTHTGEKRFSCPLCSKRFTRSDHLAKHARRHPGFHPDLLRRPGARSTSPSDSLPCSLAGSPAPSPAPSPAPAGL
# UniProt Q99459: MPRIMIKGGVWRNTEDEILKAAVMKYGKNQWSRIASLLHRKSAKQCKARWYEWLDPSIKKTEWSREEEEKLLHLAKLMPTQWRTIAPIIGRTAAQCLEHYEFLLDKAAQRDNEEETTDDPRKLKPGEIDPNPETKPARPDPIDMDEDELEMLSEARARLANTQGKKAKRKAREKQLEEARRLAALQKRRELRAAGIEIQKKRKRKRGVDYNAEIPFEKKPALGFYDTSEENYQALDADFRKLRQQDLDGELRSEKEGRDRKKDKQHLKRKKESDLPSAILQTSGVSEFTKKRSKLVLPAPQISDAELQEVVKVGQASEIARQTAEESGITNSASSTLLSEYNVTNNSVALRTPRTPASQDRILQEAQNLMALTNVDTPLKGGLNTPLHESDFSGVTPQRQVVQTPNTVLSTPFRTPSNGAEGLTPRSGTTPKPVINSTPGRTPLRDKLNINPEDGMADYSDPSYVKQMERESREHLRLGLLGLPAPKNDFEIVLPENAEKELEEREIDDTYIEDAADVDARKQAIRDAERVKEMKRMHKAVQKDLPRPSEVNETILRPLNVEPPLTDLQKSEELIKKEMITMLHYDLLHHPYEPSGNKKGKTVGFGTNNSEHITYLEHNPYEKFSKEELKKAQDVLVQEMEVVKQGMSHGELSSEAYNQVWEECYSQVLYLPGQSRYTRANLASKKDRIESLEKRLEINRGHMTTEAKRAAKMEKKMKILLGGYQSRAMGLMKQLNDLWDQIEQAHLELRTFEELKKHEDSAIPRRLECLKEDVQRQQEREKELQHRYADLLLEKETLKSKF
# UniProt Q9BTE7: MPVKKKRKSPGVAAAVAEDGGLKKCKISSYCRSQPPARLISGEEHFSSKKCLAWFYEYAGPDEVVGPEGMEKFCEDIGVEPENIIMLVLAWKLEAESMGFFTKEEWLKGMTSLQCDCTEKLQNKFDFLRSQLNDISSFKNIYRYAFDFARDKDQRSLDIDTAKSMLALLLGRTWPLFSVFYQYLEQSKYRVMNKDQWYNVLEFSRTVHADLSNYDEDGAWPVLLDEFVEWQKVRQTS
# UniProt Q9BQ04: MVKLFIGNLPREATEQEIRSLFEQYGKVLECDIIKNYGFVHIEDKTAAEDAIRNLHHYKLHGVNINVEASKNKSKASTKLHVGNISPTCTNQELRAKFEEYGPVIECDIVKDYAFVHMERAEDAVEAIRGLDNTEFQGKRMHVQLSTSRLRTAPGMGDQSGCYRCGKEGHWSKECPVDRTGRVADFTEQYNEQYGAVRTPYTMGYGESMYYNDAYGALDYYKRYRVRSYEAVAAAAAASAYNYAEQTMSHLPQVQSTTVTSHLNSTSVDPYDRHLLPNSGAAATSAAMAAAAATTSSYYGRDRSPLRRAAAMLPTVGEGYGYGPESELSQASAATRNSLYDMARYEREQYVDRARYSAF
# UniProt Q99081: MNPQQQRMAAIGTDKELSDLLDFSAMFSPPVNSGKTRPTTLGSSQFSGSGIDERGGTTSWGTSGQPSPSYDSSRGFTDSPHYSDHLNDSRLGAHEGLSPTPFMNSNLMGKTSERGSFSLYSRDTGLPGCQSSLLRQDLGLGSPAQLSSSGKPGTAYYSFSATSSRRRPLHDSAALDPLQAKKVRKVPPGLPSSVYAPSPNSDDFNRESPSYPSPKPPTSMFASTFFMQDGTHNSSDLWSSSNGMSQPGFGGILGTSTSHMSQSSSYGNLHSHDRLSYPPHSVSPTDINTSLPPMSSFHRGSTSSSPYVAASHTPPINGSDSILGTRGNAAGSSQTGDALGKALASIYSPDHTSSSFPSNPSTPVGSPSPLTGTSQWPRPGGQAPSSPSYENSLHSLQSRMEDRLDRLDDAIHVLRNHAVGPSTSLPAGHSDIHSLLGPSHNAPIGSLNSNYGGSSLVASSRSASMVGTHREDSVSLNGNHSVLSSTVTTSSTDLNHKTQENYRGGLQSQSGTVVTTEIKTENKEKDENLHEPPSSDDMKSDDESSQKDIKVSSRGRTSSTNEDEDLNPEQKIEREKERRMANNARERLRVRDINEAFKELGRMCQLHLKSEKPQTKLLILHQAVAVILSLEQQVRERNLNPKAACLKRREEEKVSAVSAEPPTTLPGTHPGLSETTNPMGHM
# UniProt Q96SU4: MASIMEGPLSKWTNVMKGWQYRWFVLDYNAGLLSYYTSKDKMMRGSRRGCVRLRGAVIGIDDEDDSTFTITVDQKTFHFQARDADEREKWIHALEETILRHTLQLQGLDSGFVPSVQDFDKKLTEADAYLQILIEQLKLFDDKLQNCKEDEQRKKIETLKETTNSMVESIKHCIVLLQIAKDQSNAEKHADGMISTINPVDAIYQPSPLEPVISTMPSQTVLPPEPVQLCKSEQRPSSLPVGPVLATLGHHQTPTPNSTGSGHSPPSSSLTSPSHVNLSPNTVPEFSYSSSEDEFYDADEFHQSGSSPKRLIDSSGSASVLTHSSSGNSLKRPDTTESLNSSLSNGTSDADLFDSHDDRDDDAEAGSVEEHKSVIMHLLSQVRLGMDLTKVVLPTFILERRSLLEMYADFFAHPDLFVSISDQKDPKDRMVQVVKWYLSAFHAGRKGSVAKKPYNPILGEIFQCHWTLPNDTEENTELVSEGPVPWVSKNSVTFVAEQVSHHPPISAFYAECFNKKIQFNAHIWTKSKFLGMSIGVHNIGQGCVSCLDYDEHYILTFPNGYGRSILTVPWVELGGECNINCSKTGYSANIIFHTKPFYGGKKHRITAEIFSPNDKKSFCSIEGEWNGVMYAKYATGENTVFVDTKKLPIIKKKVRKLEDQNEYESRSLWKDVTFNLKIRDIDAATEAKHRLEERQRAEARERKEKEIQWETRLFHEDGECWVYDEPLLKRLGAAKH
# UniProt Q9BQA1, whole entry: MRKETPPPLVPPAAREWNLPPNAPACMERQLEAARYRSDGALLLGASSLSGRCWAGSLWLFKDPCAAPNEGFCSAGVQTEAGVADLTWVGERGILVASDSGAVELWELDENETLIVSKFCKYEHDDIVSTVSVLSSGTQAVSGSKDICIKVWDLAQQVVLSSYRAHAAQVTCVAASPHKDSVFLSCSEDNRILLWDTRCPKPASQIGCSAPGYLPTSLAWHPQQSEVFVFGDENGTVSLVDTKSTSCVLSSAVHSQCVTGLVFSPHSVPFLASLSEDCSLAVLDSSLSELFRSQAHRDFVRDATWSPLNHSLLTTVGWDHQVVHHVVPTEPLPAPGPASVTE
# UniProt Q9BW85: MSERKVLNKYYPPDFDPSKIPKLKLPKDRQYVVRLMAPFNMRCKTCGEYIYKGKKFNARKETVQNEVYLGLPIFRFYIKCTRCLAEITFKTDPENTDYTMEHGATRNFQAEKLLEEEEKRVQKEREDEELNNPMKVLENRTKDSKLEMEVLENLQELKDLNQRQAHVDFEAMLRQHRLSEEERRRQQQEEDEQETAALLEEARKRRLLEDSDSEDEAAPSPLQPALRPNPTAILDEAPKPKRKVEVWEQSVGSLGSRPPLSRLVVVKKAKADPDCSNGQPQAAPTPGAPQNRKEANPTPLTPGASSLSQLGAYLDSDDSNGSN
# UniProt Q96QR8: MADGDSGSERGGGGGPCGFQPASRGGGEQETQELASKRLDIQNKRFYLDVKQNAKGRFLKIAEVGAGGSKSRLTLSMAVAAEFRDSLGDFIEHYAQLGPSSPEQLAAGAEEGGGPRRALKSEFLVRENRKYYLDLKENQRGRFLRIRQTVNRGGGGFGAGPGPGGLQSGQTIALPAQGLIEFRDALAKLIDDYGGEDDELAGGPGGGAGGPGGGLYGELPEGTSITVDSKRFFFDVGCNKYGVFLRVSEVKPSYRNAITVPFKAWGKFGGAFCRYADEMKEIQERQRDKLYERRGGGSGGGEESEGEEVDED
# UniProt Q96SK2: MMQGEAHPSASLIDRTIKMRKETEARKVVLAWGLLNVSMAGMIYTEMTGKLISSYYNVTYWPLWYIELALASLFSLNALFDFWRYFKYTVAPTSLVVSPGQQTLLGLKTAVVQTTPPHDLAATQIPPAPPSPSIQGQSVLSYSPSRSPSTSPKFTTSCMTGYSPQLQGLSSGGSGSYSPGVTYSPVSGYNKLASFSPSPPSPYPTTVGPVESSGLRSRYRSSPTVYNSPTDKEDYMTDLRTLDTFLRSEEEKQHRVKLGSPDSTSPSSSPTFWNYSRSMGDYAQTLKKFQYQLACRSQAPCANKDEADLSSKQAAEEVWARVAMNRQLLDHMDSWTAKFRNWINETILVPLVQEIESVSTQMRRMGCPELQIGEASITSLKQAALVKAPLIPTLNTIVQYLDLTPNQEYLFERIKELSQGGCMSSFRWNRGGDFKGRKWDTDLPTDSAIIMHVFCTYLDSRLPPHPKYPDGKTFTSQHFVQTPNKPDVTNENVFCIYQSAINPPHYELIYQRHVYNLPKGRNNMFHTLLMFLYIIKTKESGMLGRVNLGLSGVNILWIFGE
# UniProt Q9BTX1: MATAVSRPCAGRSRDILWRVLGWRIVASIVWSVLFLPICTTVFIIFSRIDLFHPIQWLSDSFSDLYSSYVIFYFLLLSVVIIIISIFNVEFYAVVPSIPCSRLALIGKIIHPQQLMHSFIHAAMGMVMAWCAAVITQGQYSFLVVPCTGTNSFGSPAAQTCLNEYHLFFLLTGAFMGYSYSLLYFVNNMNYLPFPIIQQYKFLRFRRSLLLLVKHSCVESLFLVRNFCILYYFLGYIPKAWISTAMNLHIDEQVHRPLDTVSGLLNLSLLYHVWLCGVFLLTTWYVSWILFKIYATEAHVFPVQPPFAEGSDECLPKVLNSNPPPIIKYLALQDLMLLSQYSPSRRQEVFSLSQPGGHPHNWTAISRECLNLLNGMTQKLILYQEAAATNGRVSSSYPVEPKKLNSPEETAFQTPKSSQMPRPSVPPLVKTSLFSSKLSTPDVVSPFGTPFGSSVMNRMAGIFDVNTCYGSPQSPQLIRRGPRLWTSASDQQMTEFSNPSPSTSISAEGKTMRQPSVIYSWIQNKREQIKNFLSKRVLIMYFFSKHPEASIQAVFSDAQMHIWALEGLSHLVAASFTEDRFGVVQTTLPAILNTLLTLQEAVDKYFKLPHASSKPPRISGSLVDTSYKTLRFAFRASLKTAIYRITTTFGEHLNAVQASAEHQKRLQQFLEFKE
# UniProt Q9BT09: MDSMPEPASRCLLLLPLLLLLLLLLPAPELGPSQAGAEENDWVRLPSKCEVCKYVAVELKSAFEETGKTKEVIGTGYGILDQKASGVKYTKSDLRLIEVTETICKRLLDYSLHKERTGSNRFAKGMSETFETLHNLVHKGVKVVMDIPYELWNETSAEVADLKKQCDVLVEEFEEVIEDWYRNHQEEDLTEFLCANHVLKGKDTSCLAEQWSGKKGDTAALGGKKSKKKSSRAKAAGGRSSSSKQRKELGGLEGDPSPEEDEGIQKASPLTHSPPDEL
# ± gives the standard deviation of the averaged measurements. The list shows a part of the results.
# Compound: Nc1nc2c(ncn2[C@@H]2O[C@H](COP(=O)(O)OP(=O)(O)OP(=O)(O)O)[C@@H](O)[C@H]2O)c(=O)[nH]1 [guanosine triphosphate]
# Assay: NP40-soluble protein abundance relative to vehicle (solubility fold change) (ratio); higher = more soluble protein in presence of GTP
# Method in brief: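 Jurkat crude lysate prepared with a Dounce homogeniser was treated at eight concentrations spanning 0.1 to 10 mM, 10 min at room temperature then 3 min at 37 °C. Solubilisation with 0.8% NP40 and benzonase and ultracentrifugation preceded TMT labelling of the supernatant for LC-MS/MS. Fold change against the detergent-processed vehicle was determined per replicate from vsn-normalised intensities, across three independent experiments.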
Target,NP40-soluble protein abundance (concentration: 0.1mM),NP40-soluble protein abundance (concentration: 0.5mM),NP40-soluble protein abundance (concentration: 1mM),NP40-soluble protein abundance (concentration: 2mM),NP40-soluble protein abundance (concentration: 4mM),NP40-soluble protein abundance (concentration: 6mM),NP40-soluble protein abundance (concentration: 8mM),NP40-soluble protein abundance (concentration: 10mM)
UniProt Q9BQI0 and related entries,0.975 ± 0.073,0.988 ± 0.089,1.03 ± 0.048,1.02 ± 0.067,0.947 ± 0.051,0.987 ± 0.077,0.938 ± 0.083,1.01 ± 0.074
UniProt Q9BRR9-2|Q9BRR9-4|Q9BRR9-5|R4GN15,1.05 ± 0.059,1.01 ± 0.035,1.03 ± 0.097,0.98 ± 0.044,0.99 ± 0.035,0.982 ± 0.044,1.02 ± 0.061,1.03 ± 0.094
SDF4 (UniProt Q9BRK5),0.937 ± 0.025,0.892 ± 0.074,1.03 ± 0.034,0.982 ± 0.057,0.978 ± 0.059,0.975 ± 0.078,0.952 ± 0.067,0.986 ± 0.032
UniProt Q9BSJ2 and related entries,1.09 ± 0.058,1.12 ± 0.14,1.17 ± 0.2,1.22 ± 0.23,1.28 ± 0.24,1.22 ± 0.31,1.23 ± 0.28,1.16 ± 0.29
UniProt Q99470 and related entries,1.11 ± 0.11,1.1 ± 0.11,1.08 ± 0.13,1.06 ± 0.086,1.04 ± 0.12,1.02 ± 0.079,1.07 ± 0.072,1.06 ± 0.063
DCTN5 (UniProt Q9BTE1),1.07 ± 0.073,1.05 ± 0.12,0.999 ± 0.11,1.04 ± 0.16,1.04 ± 0.17,1.06 ± 0.17,1.03 ± 0.15,1 ± 0.16
UniProt Q99729-3,0.929 ± 0.068,0.972 ± 0.1,1.03 ± 0.049,0.955 ± 0.11,0.934 ± 0.075,0.98 ± 0.072,1.03 ± 0.05,0.986 ± 0.085
SGPP1 (UniProt Q9BX95),0.962 ± 0.079,0.976 ± 0.073,0.925 ± 0.072,0.917 ± 0.12,0.883 ± 0.072,0.919 ± 0.1,0.946 ± 0.084,0.936 ± 0.032
UniProt Q9BSF4,1.16 ± 0.16,1.09 ± 0.11,1.12 ± 0.085,1.11 ± 0.027,1.18 ± 0.091,1.17 ± 0.037,0.972 ± 0.071,0.97875 ± 0.0002
UniProt Q9BXS6 and related entries,0.87 ± 0.079,0.764 ± 0.12,0.727 ± 0.11,0.768 ± 0.18,0.772 ± 0.16,0.737 ± 0.15,0.762 ± 0.11,0.806 ± 0.22
UniProt Q96S19,1.07 ± 0.043,0.988 ± 0.012,0.954 ± 0.039,0.981 ± 0.079,0.952 ± 0.076,0.919 ± 0.081,0.917 ± 0.024,0.892 ± 0.052
UniProt Q96TA1 and related entries,1 ± 0.015,1.01 ± 0.03,0.971 ± 0.035,0.942 ± 0.067,0.911 ± 0.039,0.9 ± 0.047,0.936 ± 0.035,0.925 ± 0.062
UniProt Q96L92 and related entries,1.03 ± 0.04,1.01 ± 0.079,0.926 ± 0.034,0.962 ± 0.084,0.94 ± 0.088,0.924 ± 0.04,0.886 ± 0.044,0.876 ± 0.1
SMG1 (UniProt Q96Q15),1.018 ± 0.0095,1.05 ± 0.063,1.02 ± 0.062,1.06 ± 0.021,1.08 ± 0.028,1.06 ± 0.047,1.09 ± 0.076,1.03 ± 0.065
PI4K2A (UniProt Q9BTU6),1.04 ± 0.032,1.02 ± 0.069,0.91 ± 0.044,0.921 ± 0.062,0.94 ± 0.071,0.878 ± 0.069,0.86 ± 0.032,0.83 ± 0.12
UniProt Q96RG2 and related entries,1.1 ± 0.14,1.01 ± 0.082,1.14 ± 0.13,1.16 ± 0.15,1.14 ± 0.1,1.21 ± 0.14,1.24 ± 0.19,1.25 ± 0.27
KLF16 (UniProt Q9BXK1),0.906 ± 0.048,0.831 ± 0.064,1.09 ± 0.061,1.03 ± 0.038,1.106 ± 0.0039,1.08 ± 0.041,0.998 ± 0.09,1.18 ± 0.085
CDC5L (UniProt Q99459),0.972 ± 0.041,0.992 ± 0.046,1.02 ± 0.025,1.03 ± 0.052,1.06 ± 0.041,1.13 ± 0.046,1.16 ± 0.083,1.19 ± 0.09
DCUN1D5 (UniProt Q9BTE7),0.984 ± 0.048,0.929 ± 0.07,0.918 ± 0.076,0.916 ± 0.077,0.948 ± 0.027,0.883 ± 0.056,0.891 ± 0.069,0.883 ± 0.074
RBM4B (UniProt Q9BQ04),1.03 ± 0.37,1.08 ± 0.16,1.03 ± 0.23,1.07 ± 0.24,1.05 ± 0.21,1.11 ± 0.2,1.04 ± 0.16,1.06 ± 0.15
UniProt Q99081 and related entries,0.99 ± 0.1,0.989 ± 0.086,0.96 ± 0.081,0.977 ± 0.1,0.954 ± 0.057,0.954 ± 0.033,0.983 ± 0.044,0.999 ± 0.084
UniProt Q96SU4 and related entries,0.982 ± 0.041,1.01 ± 0.042,0.911 ± 0.053,0.97 ± 0.049,0.909 ± 0.062,0.927 ± 0.061,0.926 ± 0.073,0.912 ± 0.066
OSBPL11 (UniProt Q9BXB4),1.03 ± 0.071,1.09 ± 0.014,1.057 ± 0.0077,1.04 ± 0.048,0.992 ± 0.033,1.06 ± 0.0075,1.03 ± 0.031,0.988 ± 0.018
WDR77 (UniProt Q9BQA1),1.08 ± 0.053,1.01 ± 0.022,0.984 ± 0.038,1.05 ± 0.019,1.12 ± 0.086,1.04 ± 0.017,1.08 ± 0.038,1.02 ± 0.013
UniProt Q9BW85,0.952 ± 0.036,0.96 ± 0.084,0.981 ± 0.067,0.926 ± 0.11,0.936 ± 0.1,0.941 ± 0.1,0.974 ± 0.068,0.991 ± 0.079
PURB (UniProt Q96QR8),0.946 ± 0.045,0.935 ± 0.049,0.966 ± 0.073,0.92 ± 0.053,0.927 ± 0.078,0.9 ± 0.071,0.902 ± 0.057,0.913 ± 0.067
MRPL32 (UniProt Q9BYC8),1.03 ± 0.11,1.04 ± 0.092,1.27 ± 0.23,1.4 ± 0.19,1.45 ± 0.32,1.35 ± 0.24,1.37 ± 0.26,1.42 ± 0.39
UniProt Q96SK2 and related entries,0.947 ± 0.017,1.01 ± 0.024,1.04 ± 0.055,0.931 ± 0.017,0.971 ± 0.042,1.13 ± 0.039,1.29 ± 0.015,1.301 ± 0.01
UniProt Q9BTX1 and related entries,1.03 ± 0.081,0.982 ± 0.043,0.981 ± 0.078,1.03 ± 0.092,1 ± 0.086,1 ± 0.091,1.05 ± 0.041,1.04 ± 0.1
CNPY3 (UniProt Q9BT09),0.85 ± 0.044,0.83 ± 0.079,0.886 ± 0.052,0.846 ± 0.064,0.823 ± 0.07,0.861 ± 0.089,0.838 ± 0.073,0.866 ± 0.076

# 2 records drawn at random from the list so far, as already listed:
Target,NP40-soluble protein abundance (concentration: 0.1mM),NP40-soluble protein abundance (concentration: 0.5mM),NP40-soluble protein abundance (concentration: 1mM),NP40-soluble protein abundance (concentration: 2mM),NP40-soluble protein abundance (concentration: 4mM),NP40-soluble protein abundance (concentration: 6mM),NP40-soluble protein abundance (concentration: 8mM),NP40-soluble protein abundance (concentration: 10mM)
UniProt Q99470 and related entries,1.11 ± 0.11,1.1 ± 0.11,1.08 ± 0.13,1.06 ± 0.086,1.04 ± 0.12,1.02 ± 0.079,1.07 ± 0.072,1.06 ± 0.063
SMG1 (UniProt Q96Q15),1.018 ± 0.0095,1.05 ± 0.063,1.02 ± 0.062,1.06 ± 0.021,1.08 ± 0.028,1.06 ± 0.047,1.09 ± 0.076,1.03 ± 0.065
